Measured data: PubChem BioAssay AID1671195 (Yale University, 2021)

Purpose: 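Knockdowns that increase or decrease uptake of fluorescent LDL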 (primary screen)
System: human Huh7 hepatoma cells
Knock-down reagent: siRNA pool against human genes, 18 nM
Duration: about 2 to 2.5 days of knockdown, then 8 h LDL uptake
Challenge: DiI-labelled LDL at 30 µg/ml for 8 h, in lipoprotein-deficient serum medium
Measured: 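Fluorescent LDL signal imaged in cells, scaled to the plate median, robust z-score for each replicate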
Direction: robust z-score: higher = more LDL uptake after knockdown
Rule for the call: 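a gene counts as active if at least two replicate z-scores exceed ±2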
The deposit covers about 22,000 reagents; this is an unselected part. Of all reagents, about 1,510 (6.9%) were called active. 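Active includes knockdowns raising or lowering LDL uptake; positive z-scores mean more uptake, negative mean less.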 Entries without a mark were called inactive. The numbers tell different reagents against one gene apart. No sequences are given here.

gene symbol | reagent no. | robust z-score, replicate 1 | robust z-score, replicate 2 | robust z-score, replicate 3
JAM2 (GeneID 58494) | 1 | 0.687 | 0.279 | 0.62
NOVA2 (GeneID 4858) | 1 | -0.943 | -0.428 | -1.1
TPH1 (GeneID 7166) | 1 | -0.319 | -0.199 | -0.266
USP40 (GeneID 55230) | 1 | -0.0703 | -0.73 | 0.0538
TUBA1C (GeneID 84790) | 1 | 2.62 | 0.203 | -0.248
ST8SIA2 (GeneID 8128) | 1 | -1.48 | -1.45 | -1.19
KLK3 (GeneID 354) | 1 | 0.446 | 0.63 | 0.597
KLRA1P (GeneID 10748) | 1 | -0.489 | -0.389 | -0.9
ZSCAN2 (GeneID 54993) | 1 | -0.836 | -0.513 | -0.143
HECTD4 (GeneID 283450) | 1 | 0.542 | 0.309 | -0.0248
HECTD4 (GeneID 283450) | 2 | -0.376 | -0.238 | -0.0599
PLEKHA2 (GeneID 59339) | 1 | -0.758 | -0.107 | -0.506
GIMAP5 (GeneID 55340) | 1 | 1.72 | -1.03 | 0.625
MROH1 (GeneID 727957) | 1 | 2.04 | 1.71 | 1.46
CADM2 (GeneID 253559) | 1 | 0.895 | 1.45 | 1.32
PLAU (GeneID 5328) | 1 | -1.07 | -0.889 | -0.849
SLC71A3P (GeneID 84278) | 1 | -0.561 | -0.0939 | -0.65
PARP3 (GeneID 10039) | 1 | 0.212 | 0.349 | 0.928
B3GAT3P1 (GeneID 402146) | 1 | -0.281 | 0.428 | -0.423
PXMP4 (GeneID 11264) | 1 | -0.0995 | -1.05 | 0.193
MGAT4B (GeneID 11282) | 1 | -0.0332 | -0.722 | -0.165
PIP5K1A (GeneID 8394) | 1 | 1.04 | -0.914 | 0.8
ZNF177 (GeneID 7730) | 1 | 0.543 | 1.24 | 0.955
DEFB121 (GeneID 245934) | 1 | 2.1 (active) | 2.17 | 2.45
LINC00863 (GeneID 439994) | 1 | -0.488 | -0.122 | -0.239
GOLPH3L (GeneID 55204) | 1 | -1.26 | -1.93 | -0.289
SUPT6H (GeneID 6830) | 1 | -0.0566 | -0.519 | -0.54
GON4L (GeneID 54856) | 1 | -0.567 | -1.54 | -2.09
NAXD (GeneID 55739) | 1 | -0.106 | -0.000426 | -1.42
TBC1D7 (GeneID 51256) | 1 | 1.56 | 0.262 | 1.43
NPBWR1 (GeneID 2831) | 1 | -0.88 | -1.52 | -1.43
ZFY (GeneID 7544) | 1 | -0.739 | -0.671 | -0.684
FGD6 (GeneID 55785) | 1 | -0.159 | 0.868 | 0.425
IL13RA1 (GeneID 3597) | 1 | 0.855 | 1.22 | 1.21
AURKC (GeneID 6795) | 1 | 1.5 | 0.0323 | 0.577
LOC440770 (retired record) (GeneID 440770) | 1 | 1.51 | 1.87 | 1.48
NDUFA9 (GeneID 4704) | 1 | 1.14 | 0.244 | 0.859
LIN54 (GeneID 132660) | 1 | 0.908 | 0.129 | -0.347
TPPP (GeneID 11076) | 1 | 1.44 | 1.03 | 0.254
EMC6 (GeneID 83460) | 1 | 0.994 | 0.421 | 1.37
SIRT4 (GeneID 23409) | 1 | -0.149 | 0.143 | 1.48
PI4K2B (GeneID 55300) | 1 | -0.707 | -0.288 | -0.594

The list goes on; the last 2 above are carried over.
gene symbol | reagent no. | robust z-score, replicate 1 | robust z-score, replicate 2 | robust z-score, replicate 3
SIRT4 (GeneID 23409) | 1 | -0.149 | 0.143 | 1.48
PI4K2B (GeneID 55300) | 1 | -0.707 | -0.288 | -0.594
CCDC117 (GeneID 150275) | 1 | 0.114 | 0.123 | -0.885
NBL1 (GeneID 4681) | 1 | 0.148 | -0.165 | 0.317
ITPA (GeneID 3704) | 1 | -0.796 | -1.19 | -0.693
SPRR2D (GeneID 6703) | 1 | -0.186 | 1.01 | 1.23
GPRIN1 (GeneID 114787) | 1 | -0.356 | -2.04 | -1.65
SLC5A3 (GeneID 6526) | 1 | -1.07 | -1.22 | -1.41
SLC35F2 (GeneID 54733) | 1 | 3.07 (active) | 4.04 | 2.26
NLGN4X (GeneID 57502) | 1 | -0.131 | -0.748 | 0.89
CHCHD1 (GeneID 118487) | 1 | -1.72 | -1.04 | -1.05
SUPT3H (GeneID 8464) | 1 | 0.789 | 3.35 | 1.86
C22orf23 (GeneID 84645) | 1 | 0.0204 | 0.356 | -0.08
LSMEM1 (GeneID 286006) | 1 | -0.567 | -0.777 | -0.687
HNRNPM (GeneID 4670) | 1 | -0.341 | -0.583 | -0.943
VRK2 (GeneID 7444) | 1 | 0.431 | 0.148 | 0.66
TMEM161B (GeneID 153396) | 1 | -0.586 | -1.78 | -0.481
OR4X1 (GeneID 390113) | 1 | 1.65 | 1.68 | 1.17
SDAD1 (GeneID 55153) | 1 | -0.817 | -1.3 | 0.169
LOC440725 (retired record) (GeneID 440725) | 1 | 0.674 | 0.829 | 0.733
DMTN (GeneID 2039) | 1 | -1.14 | 0.629 | -1.01
EXOSC10 (GeneID 5394) | 1 | -0.569 | -0.735 | 0.317
LONP1 (GeneID 9361) | 1 | 0.985 | 2.02 | 1.7
CSRP3 (GeneID 8048) | 1 | -0.578 | -0.242 | 0.783
LOC100129603 (GeneID 100129603) | 1 | 0.858 | 2.17 | 1.14
LINC02381 (GeneID 400043) | 1 | 0.208 | -0.515 | -0.179
LOC389650 (retired record) (GeneID 389650) | 1 | -0.86 | -0.473 | -1.07
P2RY2 (GeneID 5029) | 1 | -0.446 | 0.0394 | -0.0116
